9 molecules from PubChem BioAssay AID330 (DTP/NCI, 2004) can be followed below.

This assay concerns P388 leukemia ip, CD2F1 mice, survival T/C. Kind of assay: NCI In Vivo Anticancer Drug Screen. Data for tumor model P388 Leukemia (intraperitoneal) in CD2F1 (CDF1) mice. The conditions noted are these: T/C endpoint: median survival time, higher T/C = longer survival.
Where [1] appears, read: dose: 25.0 mg/kg/injection, schedule: Q01DX009 (ip), vehicle: saline.
[2] abbreviates: dose: 6.25 mg/kg/injection, schedule: Q01DX009 (ip), vehicle: water.
The mark [3] stands for this setting: dose: 100.0 mg/kg/injection, schedule: Q01DX005 (ip), vehicle: saline with Tween-80.

Molecules are shown by their SMILES. The list is a part of this screen's results and no random one: it is rich in T/C values a quarter to a half above the control, in often repeated tests (any T/C) and in doses without a T/C. Further doses and runs are listed elsewhere. T/C: endpoint of the treated group in % of that of the vehicle group. Some entries give survivors of the animals treated and no T/C: the source files T/C as zero there, which appears to mark a toxic dose or a test without result, not a measured value. Some survivor counts are full or nearly so, which does not show that the dose was tolerated: the source hardly ever lists a survival T/C far under the control, and the zero likely stands for such cases as well. Counts of survivors are from the toxicity check (mostly the fifth day) where no day follows; animals may have died later. Schedules are NCI's codes, taken here to give the interval after Q, in days (D) or hours (H), and the number of doses after X. Some entries hold several experiments; the values are given in rising order. Some structures stand for samples that the source files as different forms (salt, stereo form or complex); doses refer to the form tested. Where survival is the endpoint, the PubChem record calls one and a half times the control and up active, and a quarter to a half above the control has no call in these data; cut-offs in other NCI protocols can differ. Additions like (4×) stand for listed records that agree. Some T/C values carry the count of animals alive at the toxicity check (mostly the fifth day); where none is given, no animal had died by that day.

As to `O=C1c2ccccc2C(=O)c2c(NCCNCCO)ccc(O)c21`, the T/C runs as follows: (dose: 2.5 mg/kg/injection, schedule: Q01DX009 (ip), vehicle: acid diluted with saline) 131 % of control (2×); (dose: 5.0 mg/kg/injection, schedule: Q01DX009 (ip), vehicle: acid diluted with saline) 131 and 145 % of control; (dose: 10.0 mg/kg/injection, schedule: Q01DX009 (ip), vehicle: acid diluted with saline) 138 and 144 % of control; (dose: 12.5 mg/kg/injection, schedule: Q04DX002 (ip), vehicle: other) 125 % of control; (dose: 12.5 mg/kg/injection, schedule: Q04DX002 (ip), vehicle: water) 129 % of control; (dose: 20.0 mg/kg/injection, schedule: Q01DX009 (ip), vehicle: acid diluted with saline, evaluated on day 35) 144 % of control. The T/C by setting is: (dose: 20.0 mg/kg/injection, schedule: Q01DX009 (ip), vehicle: acid diluted with saline, evaluated on day 45) 145 % of control; (dose: 20.0 mg/kg/injection, schedule: Q04DX003 (iv), vehicle: saline) 130 % of control; (dose: 25.0 mg/kg/injection, schedule: Q04DX002 (ip), vehicle: water) 134 and 135 % of control; (dose: 40.0 mg/kg/injection, schedule: Q01DX001 (iv), vehicle: saline) 128 % of control; (dose: 50.0 mg/kg/injection, schedule: Q04DX002 (ip), vehicle: water) 136 and 138 % of control. For the same molecule, the survivor count (dose: 40.0 mg/kg/injection, schedule: Q01DX005 (ip), vehicle: saline) is reported as 7 of 8; the survivor count (dose: 40.0 mg/kg/injection, schedule: Q01DX005 (iv), vehicle: saline) is recorded as 3 of 8; the survivor count (dose: 40.0 mg/kg/injection, schedule: Q01DX009 (ip), vehicle: acid diluted with saline) is 6 of 6; the survivor count (dose: 40.0 mg/kg/injection, schedule: Q01DX009 (ip), vehicle: distilled water + Tween-80) is 4 of 6; the survivor count (dose: 40.0 mg/kg/injection, schedule: Q04DX003 (iv), vehicle: saline) is given as 8 of 8; the survivor count (dose: 54.0 mg/kg/injection, schedule: Q04DX003 (ip), vehicle: saline) is 6 of 8. Moreover, the survivor count is, setting by setting: (dose: 80.0 mg/kg/injection, schedule: Q01DX001 (iv), vehicle: saline) 0 of 8; (dose: 80.0 mg/kg/injection, schedule: Q01DX009 (ip), vehicle: distilled water + Tween-80) 0 of 6; (dose: 80.0 mg/kg/injection, schedule: Q04DX003 (ip), vehicle: saline) 3 of 8; (dose: 80.0 mg/kg/injection, schedule: Q04DX003 (iv), vehicle: saline) 0 of 8; (dose: 90.0 mg/kg/injection, schedule: Q04DX003 (ip), vehicle: saline) 6 of 8; (dose: 100.0 mg/kg/injection, schedule: Q04DX002 (ip), vehicle: other) 5 of 6. Further, the survivor count (dose: 100.0 mg/kg/injection, schedule: Q04DX002 (ip), vehicle: water) was 5 of 6; the survivor count (dose: 150.0 mg/kg/injection, schedule: Q04DX003 (ip), vehicle: saline) is 2 of 8; the survivor count (dose: 160.0 mg/kg/injection, schedule: Q01DX001 (ip), vehicle: saline) is 1 of 8; the survivor count (dose: 160.0 mg/kg/injection, schedule: Q01DX009 (ip), vehicle: distilled water + Tween-80) is recorded as 0 of 6; the survivor count (dose: 200.0 mg/kg/injection, schedule: Q04DX002 (ip), vehicle: other) is 0 of 6; the survivor count (dose: 200.0 mg/kg/injection, schedule: Q04DX002 (ip), vehicle: water) was 0 of 6.
Take `O=[N+]([O-])c1cccc(N2CN(c3ccccc3)NC(c3ccccc3)=N2)c1`: the survivor count (dose: 100.0 mg/kg/injection, schedule: Q04DX003 (ip), vehicle: saline with Tween-80) is given as 5 of 6.
As to `NC(Cc1ccccc1)C(=O)NC(Cc1ccccc1)C(=O)O` (stereo not drawn), the survivor count (dose: 400.0 mg/kg/injection, schedule: Q01DX009 (ip), vehicle: saline) is listed as 4 of 6.
On to `O=C(CI)Nc1cccc(C(=O)O)c1O`, for which the survivor count reads like this: (dose: 50.0 mg/kg/injection, schedule: Q01DX009 (ip), vehicle: Klucel (hydroxypropylcellulose) (HPC)) 3 of 6; (dose: 100.0 mg/kg/injection, schedule: Q01DX009 (ip), vehicle: Klucel (hydroxypropylcellulose) (HPC)) 0 of 6; (dose: 200.0 mg/kg/injection, schedule: Q01DX009 (ip), vehicle: Klucel (hydroxypropylcellulose) (HPC)) 0 of 6.
Turning to `CCN(CC)C(=NC(C)(C)C)c1ccccc1`, the survivor count is 6 of 6 (dose: 6.25 mg/kg/injection, schedule: Q01DX009 (ip), vehicle: saline); 2 of 6 under setting [1]; 1 of 5 (dose: 50.0 mg/kg/injection, schedule: Q01DX005 (ip), vehicle: Klucel (hydroxypropylcellulose) (HPC)); 0 of 6 (dose: 50.0 mg/kg/injection, schedule: Q01DX009 (ip), vehicle: saline); 0 of 5 (dose: 100.0 mg/kg/injection, schedule: Q01DX005 (ip), vehicle: Klucel (hydroxypropylcellulose) (HPC)); 3 of 6 (dose: 100.0 mg/kg/injection, schedule: Q01DX009 (ip), vehicle: saline). The survivor count reads like this: (dose: 200.0 mg/kg/injection, schedule: Q01DX005 (ip), vehicle: Klucel (hydroxypropylcellulose) (HPC)) 0 of 5; (dose: 200.0 mg/kg/injection, schedule: Q01DX009 (ip), vehicle: saline) 0 of 6. Moreover, the T/C (dose: 12.5 mg/kg/injection, schedule: Q01DX009 (ip), vehicle: saline) was 86, 94, 101 [5 of 6 alive], 121 % of control and the T/C under setting [1] is 88 [5 of 6 alive], 101, 111 % of control.
Regarding `COc1cccc2c1C(=O)c1c(O)c3c(c(O)c1C2=O)CC(O)(C(O)CO)CC3OC1CC(N2CCCCC2)C(O)C(C)O1` (stereo not drawn), the T/C runs as follows: (dose: 0.78 mg/kg/injection, schedule: Q01DX009 (ip), vehicle: water) 134 % of control; (dose: 3.13 mg/kg/injection, schedule: Q01DX009 (ip), vehicle: water) 139 and 146 % of control; under setting [2], 144 % of control; (dose: 18.0 mg/kg/injection, schedule: Q04DX003 (ip), vehicle: water) 134 % of control; (dose: 37.5 mg/kg/injection, schedule: Q04DX003 (ip), vehicle: water, evaluated on day 30) 131 % of control; (dose: 37.5 mg/kg/injection, schedule: Q04DX003 (ip), vehicle: water, evaluated on day 45) 135 % of control [5 of 6 alive]. In addition, the survivor count is 6 of 6 under setting [2]; 5 of 6 and 6 of 6 (dose: 12.5 mg/kg/injection, schedule: Q01DX009 (ip), vehicle: water); 1 of 6 and 2 of 6 (dose: 25.0 mg/kg/injection, schedule: Q01DX009 (ip), vehicle: water); 1 of 6 (dose: 75.0 mg/kg/injection, schedule: Q04DX003 (ip), vehicle: water); 0 of 6 (dose: 150.0 mg/kg/injection, schedule: Q04DX003 (ip), vehicle: water).
On to `COCCN1CC(=O)N2Cc3ccccc3CN2C(=O)C1`, for which the survivor count under setting [3] is on record as 5 of 5.
For `O=C(O)/C=N/NS(=O)(=O)/C=C/c1ccccc1`, under “dose: 12.5 mg/kg/injection, schedule: Q01DX009 (ip), vehicle: distilled water + Tween-80”, the T/C is 129 % of control. Further, under “dose: 200.0 mg/kg/injection, schedule: Q01DX009 (ip), vehicle: distilled water + Tween-80”, the survivor count is recorded as 3 of 6.
Regarding `CCOc1c(N=Nc2cccc(Cl)c2)c(-c2ccccc2)nn1C(=S)S`, the survivor count (dose: 12.5 mg/kg/injection, schedule: Q01DX005 (ip), vehicle: saline with Tween-80) was 1 of 6; the survivor count (dose: 25.0 mg/kg/injection, schedule: Q01DX005 (ip), vehicle: saline with Tween-80) is reported as 0 of 6; the survivor count (dose: 50.0 mg/kg/injection, schedule: Q01DX005 (ip), vehicle: saline with Tween-80) is on record as 0 of 6; the survivor count under setting [3] is listed as 0 of 6; the survivor count (dose: 200.0 mg/kg/injection, schedule: Q01DX005 (ip), vehicle: saline with Tween-80) is given as 0 of 6.
